Source: patent publication USRE50631E1, “ROR1 antibody immunoconjugates” (VelosBio Inc., priority 2017, dated 2025)
At least one compound was matched to its structure with a doubt left.

Columns and labels:
Jeko-1 MCL xenograft = Jeko-1 MCL xenograft mouse model (study 2); assay type: in vivo; settings: 20 mg/kg ibrutinib PO QD
DLBCL-GCB PDX = DLBCL-GCB PDX mouse model; assay type: in vivo; settings: ADC-A 5 mg/kg IV qw; Ab1 10 mg/kg IV qw; venetoclax 50 mg/kg PO qd; 24 days

Q: Which “tumor response to ibrutinib” value (Jeko-1 MCL xenograft) does the source give for `C=CC(=O)N1CCC[C@@H](n2nc(-c3ccc(Oc4ccccc4)cc3)c3c(N)ncnc32)C1` [ibrutinib, reference compound] here?
A: resistant

Q: For `CC1(C)CCC(CN2CCN(c3ccc(C(=O)NS(=O)(=O)c4ccc(NCC5CCOCC5)c([N+](=O)[O-])c4)c(Oc4cnc5[nH]ccc5c4)c3)CC2)=C(c2ccc(Cl)cc2)C1` [venetoclax, reference compound], which tumor response (DLBCL-GCB PDX) is on record?
A: ineffective
